PubChem BioAssay AID504764 – Drosophila RNAi Screening Center, 2011

- Test: 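Knock-downs that raise or lower a Notch target reporter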 (primary screen)
- System: Drosophila Kc167 cells
- Knock-down reagent: long dsRNA against Drosophila genes
- Timing: about 5 days (4 days dsRNA, then 24 h after transfection)
- Challenge: transfection of constitutively active membrane-tethered Notch lacking the extracellular domain, read 24 h later
- Detection: 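Light from a Notch-responsive E(spl)m3 luciferase reporter under active Notch, with control-promoter and no-Notch reporter wells to normalise; raw counts from paired wells a and b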
- Scale: induced reporter light, run 1, well a and induced reporter light, run 1, well b: higher = more light from the Notch target reporter with active Notch; control promoter light, run 1, well a and control promoter light, run 1, well b: higher = more light from the viral control promoter (cell number, transfection, viability); uninduced reporter light, run 1, well a: higher = more light from the Notch target reporter without active Notch
- Hit rule: 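Wells with low control signal or poorly matching duplicates excluded; duplicates averaged; per source plate, z beyond ±2 for induced/control log2 ratio or beyond ±1.8 for induced/uninduced marks a hit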
- Calls: active = modifier hit (raised or lowered Notch signal); inactive = not a hit
In all, the deposit lists about 22,000 reagents; shown is a random part of those with a known target gene and a result. Over the whole deposit, 403 (1.9%) got an active call. 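Unnormalised raw counts per well; ratio z-scores behind the hit calls and whether each hit raises or lowers signal are not deposited.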 A number with no mark means an inactive call. Names joined by + are all predicted targets of the reagent. Not given: the amount of reagent.

target gene | amplicon | induced reporter light, run 1, well a | induced reporter light, run 1, well b | control promoter light, run 1, well a | control promoter light, run 1, well b | uninduced reporter light, run 1, well a
CG12684 | DRSC17875 | 1.44e5 | 1.39e5 | 2.49e5 | 2.49e5 | 12115
amrt | DRSC19378 | 82560 | 70510 | 91130 | 90500 | 12230
CDase | DRSC14932 | 54995 | 53720 | 63375 | 66130 | 3785
Efhc1.2 | DRSC06027 | 88985 | 97400 | 1.83e5 | 1.84e5 | 9735
asf1 | DRSC11324 | 49120 | 54945 | 41405 | 43490 | 4810
Rfx | DRSC16820 | 87560 | 76700 | 68470 | 56860 | 5495
CG7173 | DRSC11812 | 7930 | 5720 | 6942 | 5425 | 3860
crn | DRSC18184 | 53165 | 50160 | 59455 | 76380 | 3960
crn | DRSC18185 | 1.04e5 | 1.01e5 | 1.67e5 | 1.33e5 | 6035
crn | DRSC18755 | 34755 | 35195 | 44290 | 40320 | 2678
CG11262 | DRSC09831 | 1.50e5 | 1.60e5 | 2.09e5 | 1.70e5 | 8860
yellow-c + CIAPIN1 | DRSC01898 | 1.43e5 | 1.44e5 | 1.28e5 | 1.42e5 | 12020
Ccs | DRSC06692 | 1.84e5 | 1.74e5 | 1.81e5 | 2.40e5 | 16165
CG13036 (retired record) | DRSC09916 | 1.71e5 | 1.34e5 | 1.80e5 | 1.85e5 | 7395
TfIIS | DRSC03455 | 2.53e5 | 2.22e5 | 2.58e5 | 2.51e5 | 19125
frma | DRSC18297 | 1.86e5 | 1.42e5 | 2.32e5 | 1.88e5 | 10805
Klp68D | DRSC11206 | 1.46e5 | 1.35e5 | 86840 | 49160 | 10985
CG8509 | DRSC20109 | 1.59e5 | 1.72e5 | 1.92e5 | 1.74e5 | 11610
CG42656 | DRSC12472 | 1.06e5 | 1.25e5 | 1.21e5 | 1.12e5 | 9175
Lsp1beta | DRSC00757 | 1.90e5 | 1.99e5 | 1.72e5 | 1.83e5 | 20120
CG13312 | DRSC09983 | 1.88e5 | 1.78e5 | 2.34e5 | 2.31e5 | 11490
CG32483 | DRSC07902 | 1.88e5 | 1.77e5 | 1.74e5 | 1.73e5 | 15080
a6 | DRSC18733 | 1.91e5 | 2.01e5 | 2.65e5 | 2.76e5 | 13275
CG7402 | DRSC10839 | 1.50e5 | 1.35e5 | 2.14e5 | 1.93e5 | 6928
del | DRSC03170 | 1.74e5 | 1.89e5 | 1.72e5 | 2.03e5 | 17500
CG3348 | DRSC15480 | 1.61e5 | 1.30e5 | 1.78e5 | 1.92e5 | 11510
CG14969 | DRSC08428 | 1.29e5 | 1.23e5 | 1.16e5 | 58430 | 15325
CG16890 | DRSC01890 | 2.63e5 | 1.94e5 | 1.92e5 | 2.06e5 | 17100
CG5561 | DRSC00688 | 1.51e5 | 1.31e5 | 1.16e5 | 76110 | 10765
CG42676 | DRSC08227 | 61700 | 54920 | 1.18e5 | 1.08e5 | 6995
CG42676 | DRSC08392 | 1.35e5 | 1.46e5 | 1.84e5 | 1.79e5 | 5692
TTLL5 | DRSC14181 | 1.71e5 | 1.94e5 | 2.26e5 | 2.30e5 | 17275
CG13476 | DRSC10019 | 1.29e5 | 1.67e5 | 2.22e5 | 1.96e5 | 8930
Zip42C.2 | DRSC05004 | 1.83e5 | 1.82e5 | 1.66e5 | 1.76e5 | 13725
Tsp42Eh | DRSC06190 | 1.26e5 | 1.41e5 | 2.05e5 | 1.71e5 | 12210
ms(2)34Fe | DRSC01905 | 1.36e5 | 1.63e5 | 1.44e5 | 1.71e5 | 12375
hyd | DRSC16971 | 52670 | 43550 | 52005 | 34790 | 3205
Spt | DRSC07123 | 2.22e5 | 1.96e5 | 2.53e5 | 2.62e5 | 18740
Src64B | DRSC08700 | 1.30e5 | 1.23e5 | 1.16e5 | 1.37e5 | 5235
Atx-1 | DRSC18365 | 1.30e5 | 1.46e5 | 2.75e5 | 2.37e5 | 11050
CG17127 | DRSC02581 | 1.04e5 | 1.14e5 | 60195 | 60670 | 15365
CG17267 | DRSC15207 | 1.61e5 | 1.39e5 | 1.91e5 | 1.90e5 | 10432
Ork1 | DRSC20266 | 1.81e5 | 1.51e5 | 2.30e5 | 2.08e5 | 11595
CG4596 | DRSC15608 | 61625 | 92250 | 80115 | 76080 | 3975
Tep5Psi | DRSC02183 | 1.26e5 | 70870 | 64890 | 1.35e5 | 4295
Tep5Psi | DRSC02184 | 35095 | 27100 | 34980 | 66585 | 1940
ths | DRSC06153 | 16690 | 13115 | 17495 | 12505 | 5328
jumu | DRSC16651 | 1.13e5 | 90550 | 73895 | 53400 | 5545
LS2 | DRSC04340 | 1.95e5 | 1.64e5 | 1.53e5 | 1.83e5 | 12955
Syx6 | DRSC07032 | 1.54e5 | 1.66e5 | 1.54e5 | 1.39e5 | 17810

A stretch of the results above, for reference:
target gene | amplicon | induced reporter light, run 1, well a | induced reporter light, run 1, well b | control promoter light, run 1, well a | control promoter light, run 1, well b | uninduced reporter light, run 1, well a
CG16890 | DRSC01890 | 2.63e5 | 1.94e5 | 1.92e5 | 2.06e5 | 17100
CG5561 | DRSC00688 | 1.51e5 | 1.31e5 | 1.16e5 | 76110 | 10765
CG42676 | DRSC08227 | 61700 | 54920 | 1.18e5 | 1.08e5 | 6995
CG42676 | DRSC08392 | 1.35e5 | 1.46e5 | 1.84e5 | 1.79e5 | 5692
TTLL5 | DRSC14181 | 1.71e5 | 1.94e5 | 2.26e5 | 2.30e5 | 17275
CG13476 | DRSC10019 | 1.29e5 | 1.67e5 | 2.22e5 | 1.96e5 | 8930
